Article PMC10060162, “Structural basis of mitochondrial membrane bending by the I–II–III2–IV2 supercomplex” (Nature, 2023)
No constants are given. Whether binding was seen depends on the method and setting. In cells and extracts the contact can be indirect. Binding can be weak; no strength is given.

Biological target: NDUCA1 (Tetrahymena thermophila)
Experiment: cryo-EM structure; single-particle cryo-EM of the native supercomplex co-purified from T. thermophila mitochondria; buffer D (25 mM HEPES-KOH pH 7.5, 25 mM KCl, 5 mM MgCl2, 0.1% w/v digitonin); 2.9 Å overall, masked refinements 2.6-3.0 Å; both purified

B1: COX3b (protein, UniProt Q950Y6 1-594)
chain: MLICNFLMYSNFSRIYWFDFNGTVNENLPLNYNVLKICRNEINKLEKLNENNLGTQKNPIKLNLSFEDKHYNTNNLVLDLNSYETFNSKNFISSIFDKTFESLNTVLMAPIYSFLEFKLKLSSTKINTNHYYVINGKLYITYNDSFKLFTTINDYFNDLNELSNTKLFFLYRSFNIYNIKLNSLVDFVFLKLILFIHLLYLKSTNYNRFDYRLKQTDWGFYINNNSNYIQNIFSGLKYIWRGLRFWIIGLLLGLSSIYYLMYVRLLPFNKIIFAWILVAMFLYWLLSGFVFFVKKYQYSKFTAAIQRFWKRTYIIFWVIEAGTFSVFFYLTLNASSEPVYMYDQIKIYKTHLFSWRWFLIKLLPSVSIILLGYYLQLTLKWNLFNKQNTIVLLITLLLLYILWLEFYQFYHILSFYGNINWAFDYDEYIWTLELDTRRTRLANNYIAICLFAKFWHFVFIFLFWVFFVLRINELGRIRYPLLVANVQNFIIIYIMSWAYMYPWLKFIFRKYLDVPYYWFYLNGRELGIRVFFTDLKLFFYGITNRLFDFNPSSIKFEKYPFYYWINSSQLTEFNQYRKFVIRDSIIYSLNNYII
binding: binds
